These are yes or no findings as the source states them, for the method shown. A result given as binding can be weak or reduced; the word gives no strength.
What was measured:
Test in all cases: two-hybrid; MatchMaker system (Clontech); BnaCBLs in pGBKT7, BnaCIPKs or BnaCIPK3 fragments in pGADT7; yeast strain AH109; growth at 30°C on SD-LTHA (only growth on SD-LTHA scored as interaction), dilution series and X-gal staining
[1] = target: BnaCBL9 (Brassica napus) (UniProt V9LYC6)
[2] = target: BnaCBL1 (Brassica napus) (UniProt V9LYC3)
[3] = target: BnaCBL4 (Brassica napus)
[4] = target: BnaCBL10 (Brassica napus) (UniProt V9LYF0)

Substance | binding [1] | binding [2] | binding [3] | binding [4]
BnaCIPK26 (from UniProt V9LY70) | binds | binds weakly | binds | binds
BnaCIPK9 (from UniProt V9LYD1) | binds | binds | binds | no binding
BnaCIPK5 (from UniProt V9LYF7) | binds | binds | binds | binds
BnaCIPK6 (from UniProt V9LY54) | binds | binds | binds | no binding
BnaCIPK24 (from UniProt V9LYK4) | binds | binds weakly | binds | no binding
BnaCIPK8 (from UniProt V9LY73) | no binding | binds weakly | no binding | no binding
BnaCIPK25 (from UniProt V9MHQ9) | no binding | binds | binds weakly | no binding
BnaCIPK11 (from UniProt V9LYK3) | – | binds | binds | binds weakly
BnaCIPK17 (from UniProt V9LYF6) | binds | binds | binds | binds
BnaCIPK1 (from UniProt V9LYF3) | binds weakly | binds | binds | no binding
BnaCIPK12 (from UniProt V9LY68) | – | – | binds weakly | no binding
BnaCIPK15 (from UniProt V9LYC8) | binds | – | binds | binds
BnaCIPK10 (from UniProt V9LY51) | binds | binds | binds | binds
BnaCIPK7 (from UniProt A0A078HQE5) | binds | binds weakly | binds | no binding

— paper PMC3890537
